Results: patent US20240285624A1, “ERK1/2 OR SHP2 INHIBITORS AND FLT3 INHIBITORS COMBINATION THERAPY” (Erasca, Inc., priority 2021, published 2024)
For at least one compound, name, drawing or mass did not settle the structure. Some results were stated once for a whole list of compounds, not compound by compound.

Experiments:
[1] = system: ERK1/2 phosphorylation in MOLM-14 cells; assay: Western blot of phosphorylated ERK1/2; format: cell-based; settings: 4 hours; for decrease of ERK1/2 phosphorylation (bands quantified, normalized by total ERK): single agent, relative to DMSO treated control cells
Procedure: (§1) Western blotting: Cells were lysed on ice for 10 minutes with Thermo Fisher RIPA lysis buffer with protease and phosphatase inhibitors. The cells were centrifuged at 4° for 10 minutes with a microcentrifuge. The supernatant was transferred to pre-chilled microcentrifuge tube and protein concentration of the lysate was measured using BCA method. Cell lysate supematants of equal-amount of proteins were used for immunoblotting.
(§2) FIG. 3A is a Western blot showing compound 2 and gilteritinib combination induced downregulation of ERK1/2 phosphorylation in MOLM-14 cells. FIG. 3B is a bar plot quantifying the results of […]. The cell lines, MOLM14 and MV-4-11 were split onto a 6 well plate and treated with compound 2 and gilteritinib alone, and in combination as indicated (FIGS. 3A/B and 4A/B). After 4 hours treatment, cells were lysed and immunoblotted for phosphorylated ERK1/2. […] The phosphorylated ERK1/2 bands were quantified by using Bio-Rad Image Lab software and normalized by total ERK.

[2] = system: ERK1/2 phosphorylation in MV-4-11 cells; assay: Western blot of phosphorylated ERK1/2; format: cell-based; settings: 4 hours; for decrease of ERK1/2 phosphorylation (bands quantified, normalized by total ERK): single agent, relative to DMSO treated control cells
Procedure: as §1, §2
FIG. 4A is a Western blot showing compound 2 and gilteritinib combination induced downregulation of ERK1/2 phosphorylation in MV-4-11 cells. FIG. 4B is a bar plot quantifying the results of […]. […] The phosphorylated ERK1/2 bands were quantified by using Bio-Rad Image Lab software and normalized by total ERK.

Row | SMILES | decrease of ERK1/2 phosphorylation (bands quantified, normalized by total ERK) [1] [%] | decrease of ERK1/2 phosphorylation (bands quantified, normalized by total ERK) [2] [%] | inhibition of ERK1/2 phosphorylation (immunoblot) ([1]; gilteritinib 0.5 nM alone) | inhibition of ERK1/2 phosphorylation (immunoblot) ([2]; gilteritinib 0.5 nM alone)
1 | COCOC[C@H]1C[C@H]2COc3c(Sc4cnc(N5CCC6(CC5)CO[C@@H](C)[C@H]6N)c(CO)n4)ccnc3N2C1 [compound 2, (3-((3S,4S)-4-amino-3-methyl-2-oxa-8-azaspiro[4.5]decan-8-yl)-6-(((6aS,8S)-8-((methoxymethoxy)methyl)-6a,7,8,9-tetrahydro-6H-pyrido[3,2-b]pyrrolo[1,2-d][1,4]oxazin-4-yl)thio)pyrazin-2-yl)methanol] | 30 to 40 | 40 to 50 | – | –
2 | CCc1nc(C(N)=O)c(Nc2ccc(N3CCC(N4CCN(C)CC4)CC3)c(OC)c2)nc1NC1CCOCC1 [gilteritinib, reference compound] | 30 to 40 | 40 to 50 | robust inhibition | robust inhibition
